Measured values published in article PMC9120031.

Sequences of proteins named here, by UniProt entry; tags and fusion partners are left off. A change or cut given only in a name is not applied to a line headed by its entry.
UniProt Q9JHF5: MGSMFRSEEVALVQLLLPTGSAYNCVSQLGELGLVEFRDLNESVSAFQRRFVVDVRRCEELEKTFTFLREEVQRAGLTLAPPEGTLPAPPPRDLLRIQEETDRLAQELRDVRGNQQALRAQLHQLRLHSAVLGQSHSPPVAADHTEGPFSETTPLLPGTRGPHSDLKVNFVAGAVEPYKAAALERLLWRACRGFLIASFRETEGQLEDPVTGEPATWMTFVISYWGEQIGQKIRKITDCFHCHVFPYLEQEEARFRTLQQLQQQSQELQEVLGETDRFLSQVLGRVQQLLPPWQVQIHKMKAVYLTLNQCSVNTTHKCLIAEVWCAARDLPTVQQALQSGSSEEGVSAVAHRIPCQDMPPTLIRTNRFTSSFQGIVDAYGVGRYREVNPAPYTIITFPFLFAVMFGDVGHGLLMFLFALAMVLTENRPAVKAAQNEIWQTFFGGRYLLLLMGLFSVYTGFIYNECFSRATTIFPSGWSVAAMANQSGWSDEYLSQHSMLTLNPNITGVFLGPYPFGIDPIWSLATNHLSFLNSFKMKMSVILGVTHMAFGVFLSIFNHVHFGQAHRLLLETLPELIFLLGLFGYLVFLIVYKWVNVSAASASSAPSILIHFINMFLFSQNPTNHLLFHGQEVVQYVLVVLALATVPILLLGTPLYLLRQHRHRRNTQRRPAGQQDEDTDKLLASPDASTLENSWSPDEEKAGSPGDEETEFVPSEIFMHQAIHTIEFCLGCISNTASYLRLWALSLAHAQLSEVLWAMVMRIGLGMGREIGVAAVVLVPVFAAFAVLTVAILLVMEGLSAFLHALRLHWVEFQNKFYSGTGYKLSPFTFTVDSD

What was measured:
Experiment in all cases: co-IP; FLAG- and V5-tagged proteins co-expressed in HEK293T cells; lysed 48 h after transfection in IP buffer (1% Triton X-100, 10% glycerol, 50 mM Tris-HCl pH 7.4, 150 mM NaCl, 1 mM dithiothreitol, 1 mM EDTA); precipitated with anti-FLAG antibody; western blot with anti-V5 (or anti-A subunit) antibody
[1] = target: FLAG-a3N deletion mutant 1-134 (UniProt Q9JHF5)
[2] = target: FLAG-tagged V-ATPase a3 subunit (full-length) (UniProt Q9JHF5)
[3] = target: FLAG-tagged a3N (amino-terminal half of a3, amino acids 1-386) (UniProt Q9JHF5)
[4] = target: FLAG-a3N deletion mutant 1-213 (UniProt Q9JHF5)
[5] = target: FLAG-a3N deletion mutant 1-315 (UniProt Q9JHF5)

B1: V5-tagged Mon1A (protein, UniProt Q6PDG8 1-556)
chain: MAADMQRKRSSECPEGTLAPSNGQSVERAESPTPGLTQGTEPGAGQEGAMFVHTRSYEDLTELEDREASGDSPKECVGSPPPLATDMRQISQDFSELSTQLTGVARDLQEEMLPGSSEDWPEPQGAAGRGAATEPSQEGSTEGEEEDATEAWRLHQKHVFVLSEAGKPVYSRYGSEEALSSTMGVMVALVSFLEADKNAIRSIHADGYKVVFVRRSPLVLVAVARTRQSAQELAQELLYIYYQILSLLTGAQLSHIFQQKQNYDLRRLLSGSERITDNLLQLMARDPSFLMGAARCLPLAAAVRDTVSASLQQARARSLVFSILLAHNQLVALVRRKDQFLHPIDLHLLFNLISSSSSFREGEAWTPVCLPKFNAAGFFHAHISYLEPDTDLCLLLISTDREDFFAVSDCRRRFQERLRKRGTHLALREALRTPYYSVAQVGIPDLRHFLYKSKSSGLFTSPEIEAPYSSEEEQERLLGLYQYLHSRAHNASRPLKTIYYTGPNENLLAWVTGAFELYMCYSPLGTKASAVSAIHKLMRWIRKEEDRLFILTPLTY
**Q.** How did the binding [1] turn out when B1 was run?
**A.** Its binding is “binds”.

**Q.** And the binding [2]?
**A.** Its binding is “binds”.

**Q.** What about the binding [3] of the same binder?
**A.** Its binding is “binds”.

**Q.** And the binding [4]?
**A.** Its binding is “binds”.

**Q.** And the binding [5]?
**A.** Its binding is “binds”.

B2: V5-tagged Ccz1 (protein, UniProt Q8C1Y8 1-480)
chain: MAAAAAGPGAWAAQEKQFPPALLSFFIYNPRFGPREGEEENKILFYHPNEVEKNEKIRNVGLCEAIVQFTRTFSPSKPAKSLHTQKNRQFFNEPEENFWMVMVVRNPIIEKQSKDGKAVVEYQEEELLDKVYSSVLQQCYSMYKLFNGTFLKAMEDGGVKLLKERLEKFFHRYLQTLHLQSCDLLDIFGGISFFPLDKMTYLKIQSFINRMEESLSVVKYTAFLYNDQLIWSGLEQDDMRILYKYLTTSLFPRHIEPELAGRDSPVRAEMPGNLQHYGRFLTGPLNLNDPEAKCRFPKIFVNTDDTYEELHLIVYKAMSAAVCFMIDASTPLTLDFCRRLDSIVGPQLTVLASDICEQFNINKRISGSEKEPQFKFIYFNHMNLAEKSTIHMRKTPSVSLTSVHPDLMKILGDINSDFTRADEDEEIIVKAMSDYWVVGKKSDQRELYVILSQKNANLIEVNEEVKKLCATQFNNIFFLD
**Q.** Which results are given for B2?
**A.** binding [1]: binds; binding [2]: binds; binding [3]: binds; binding [4]: binds weakly; binding [5]: binds

B3: V5-Mon1A G166P/K167D (PD) mutant (protein, UniProt Q6PDG8 1-556)
chain: B1 chain with G166P, K167D
**Q.** For B3, which binding [2] is on record?
**A.** The binding was “binds”.

B4: V5-Mon1A N262W/D264A/R266A (WAA) mutant (protein, UniProt Q6PDG8 1-556)
chain: B1 chain with N262W, D264A, R266A
**Q.** With B4 as the binder, how does the binding [2] read?
**A.** The binding was “binds”.

Changes are numbered by the printed parent chain. In names and notes the source's numbering stands. Results are given in words; binding and its absence hold for the method and conditions named. Binding seen in cells or lysates may run through a third protein. Binding can be weak; no strength is given. Where a sequence is shown, tags or fusion partners need not be part of it.
